No constants are given. Whether binding was seen depends on the method and setting. In cells and extracts the contact can be indirect. A yes stands for co-enrichment or nearness to the bait. Other partners may have been found.
Target: T1, high mobility group box 2 (HMGB2), endogenous mouse (mouse (endogenous in neonatal mouse myocardium and NMCMs)) (UniProt P30681)
T1 sequence: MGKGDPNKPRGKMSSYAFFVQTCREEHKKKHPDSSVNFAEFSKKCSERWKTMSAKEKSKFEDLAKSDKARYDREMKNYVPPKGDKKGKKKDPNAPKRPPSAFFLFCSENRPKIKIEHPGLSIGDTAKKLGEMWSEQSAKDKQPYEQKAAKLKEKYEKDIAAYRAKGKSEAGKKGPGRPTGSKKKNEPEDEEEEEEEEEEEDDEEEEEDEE
Experiment: affinity purification with mass spectrometry; immunoprecipitation of HMGB2 from the myocardium of P1 mice following apical resection; SDS-PAGE, silver staining, mass spectrometry

The chains behind the UniProt entries cited, without tags or fusion partners.
UniProt Q9R190: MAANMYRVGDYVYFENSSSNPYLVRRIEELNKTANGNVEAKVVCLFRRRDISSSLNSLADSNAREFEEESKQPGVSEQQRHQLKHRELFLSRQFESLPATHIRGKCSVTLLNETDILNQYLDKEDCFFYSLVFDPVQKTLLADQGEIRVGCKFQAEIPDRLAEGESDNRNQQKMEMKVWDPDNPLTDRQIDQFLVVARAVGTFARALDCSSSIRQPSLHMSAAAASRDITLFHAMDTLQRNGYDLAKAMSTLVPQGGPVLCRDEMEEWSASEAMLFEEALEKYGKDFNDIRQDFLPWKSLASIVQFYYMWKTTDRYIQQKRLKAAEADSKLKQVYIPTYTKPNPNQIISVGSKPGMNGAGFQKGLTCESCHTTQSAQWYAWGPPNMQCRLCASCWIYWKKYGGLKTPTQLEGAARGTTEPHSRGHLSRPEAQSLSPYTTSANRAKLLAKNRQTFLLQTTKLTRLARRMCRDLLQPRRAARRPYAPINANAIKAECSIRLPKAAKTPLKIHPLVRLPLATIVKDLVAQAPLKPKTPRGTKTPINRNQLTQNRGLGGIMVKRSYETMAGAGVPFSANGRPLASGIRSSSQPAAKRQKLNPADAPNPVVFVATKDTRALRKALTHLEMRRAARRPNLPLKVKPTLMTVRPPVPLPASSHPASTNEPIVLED

metastasis‐associated protein 2 (MTA2), endogenous mouse (from UniProt Q9R190 1-668)
binding: binds

— PMC12767070
